# Source: the supplement of paper PMC4604168 (melanoma cell lines)
# Some of the results follow. Single values are uncertain, as repeats are few or missing.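 Cells were imaged in 1,536-well plates, and nuclei stained with an antibody against cleaved PARP were counted against all DNA-stained nuclei to give the apoptosis fraction. Screening doses were chosen to leave most cells alive, and resting and induced cleaved-PARP levels differ strongly between cell lines.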
# How the values were obtained:
# Assay in all cases: cleaved PARP positive nuclei fraction relative to DMSO control; melanoma cells; higher = more apoptosis
# Conditions in all cases: library dose: low library concentration; 72 h
# 501Mel = tested on: 501Mel
# A101D = tested on: A101D
# A2058 = tested on: A2058
# A375 = tested on: A375
# C32 = tested on: C32
# CBRC008 = tested on: CBRC008 (line from a melanoma biopsy)
# CBRC014 = tested on: CBRC014 (line from a melanoma biopsy)
# CBRC016 = tested on: CBRC016 (line from a melanoma biopsy)
# CBRC017 = tested on: CBRC017 (line from a melanoma biopsy)
# CBRC034 = tested on: CBRC034 (line from a melanoma biopsy)
# COLO792 = tested on: COLO792
# COLO800 = tested on: COLO800
# COLO829 = tested on: COLO829
# G361 = tested on: G361
# IPC-298 = tested on: IPC-298
# IST-MEL1 = tested on: IST-MEL1
# LB2518-MEL = tested on: LB2518-MEL
# LOXIMVI = tested on: LOXIMVI
# MEL-HO = tested on: MEL-HO
Compound,cleaved PARP positive nuclei fraction (501Mel) [%],cleaved PARP positive nuclei fraction (A101D) [%],cleaved PARP positive nuclei fraction (A2058) [%],cleaved PARP positive nuclei fraction (A375) [%],cleaved PARP positive nuclei fraction (C32) [%],cleaved PARP positive nuclei fraction (CBRC008) [%],cleaved PARP positive nuclei fraction (CBRC014) [%],cleaved PARP positive nuclei fraction (CBRC016) [%],cleaved PARP positive nuclei fraction (CBRC017) [%],cleaved PARP positive nuclei fraction (CBRC034) [%],cleaved PARP positive nuclei fraction (COLO792) [%],cleaved PARP positive nuclei fraction (COLO800) [%],cleaved PARP positive nuclei fraction (COLO829) [%],cleaved PARP positive nuclei fraction (G361) [%],cleaved PARP positive nuclei fraction (IPC-298) [%],cleaved PARP positive nuclei fraction (IST-MEL1) [%],cleaved PARP positive nuclei fraction (LB2518-MEL) [%],cleaved PARP positive nuclei fraction (LOXIMVI) [%],cleaved PARP positive nuclei fraction (MEL-HO) [%]
"COc1cc([C@@H]2c3cc4c(cc3[C@@H](O[C@@H]3O[C@@H]5CO[C@@H](C)O[C@H]5[C@H](O)[C@H]3O)[C@H]3COC(=O)[C@H]23)OCO4)cc(OC)c1O [etoposide] + Cn1sc(=O)n(Cc2ccccc2)c1=O [TDZD-8] (first compound 0.02 µM, partner dose 0.4 µM)",146,44.3,95.3,68.3,80.1,90.3,71.1,103,94,97.1,60,89.5,106,220,92.8,33.9,112,17.5,21.9
"Cc1cn(-c2cc(NC(=O)c3ccc(C)c(Nc4nccc(-c5cccnc5)n4)c3)cc(C(F)(F)F)c2)cn1 [nilotinib] + CCCCCCCCCCCC1=C(O)C(=O)C=C(O)C1=O [Embelin] (first compound 0.2 µM, partner dose 1.2 µM)",53.7,33.8,78.5,,220,94.3,89.3,14,79.6,,38.5,72.7,31.8,79.8,60.5,111,66.8,12.7,
"O=C(Nc1cc(C(F)(F)F)cc(C(F)(F)F)c1)c1cc(Cl)ccc1O + CCN(CC)CCNC(=O)c1c(C)[nH]c(/C=C2\C(=O)Nc3ccc(F)cc32)c1C [sunitinib] (first compound 0.016 µM, partner dose 0.4 µM)",130,175,136,110,80,75.2,96.4,307,110,56.8,114,199,75,116,43.4,30.4,158,134,56.1
"Cc1cn(-c2cc(NC(=O)c3ccc(C)c(Nc4nccc(-c5cccnc5)n4)c3)cc(C(F)(F)F)c2)cn1 [nilotinib] + CC(=O)c1c(C)c2cnc(Nc3ccc(N4CCNCC4)cn3)nc2n(C2CCCC2)c1=O [palbociclib] (first compound 0.2 µM, partner dose 0.04 µM)",94.5,124,85.8,207,172,65.7,125,132,111,128,58.6,177,327,116,65,33.9,118,55.3,74.5
"N#CC[C@H](C1CCCC1)n1cc(-c2ncnc3[nH]ccc23)cn1 [ruxolitinib] + C=C(c1ccc(C(=O)O)cc1)c1cc2c(cc1C)C(C)(C)CCC2(C)C [Bexarotene] (first compound 1 µM, partner dose 2 µM)",172,79.5,83.6,74,133,153,141,112,133,33.3,39.2,50.4,,107,45.6,101,46,193,60.9
"COc1cc([C@@H]2c3cc4c(cc3[C@@H](O[C@@H]3O[C@@H]5CO[C@@H](C)O[C@H]5[C@H](O)[C@H]3O)[C@H]3COC(=O)[C@H]23)OCO4)cc(OC)c1O [etoposide] + Nc1cccc2c1CN(C1CCC(=O)NC1=O)C2=O [lenalidomide] (first compound 0.02 µM, partner dose 1 µM)",52.6,69.4,141,239,89.4,66.4,93.2,125,74.3,66,,29,171,162,43,139,69.9,68.4,80.6
"Cc1ccc(Nc2nccc(N(C)c3ccc4c(C)n(C)nc4c3)n2)cc1S(N)(=O)=O [Pazopanib] + CCCCCCCCc1ccc(CCC(N)(CO)CO)cc1 [fingolimod] (first compound 0.4 µM, partner dose 2 µM)",92.5,148,67.3,102,141,112,104,79.3,126,34.1,155,182,97.4,78.8,107,135,97.7,164,135
"Cc1cc(Nc2cc(N3CCN(C)CC3)nc(Sc3ccc(NC(=O)C4CC4)cc3)n2)n[nH]1 [Tozasertib] + COc1ccc(-c2ccc3c(N4CCOCC4)nc(N4C[C@@H](C)O[C@@H](C)C4)nc3n2)cc1CO [KU0063794] (first compound 0.006 µM, partner dose 0.02 µM)",66.3,45.6,91.2,,90.1,103,124,22.4,248,,125,70.6,116,59.3,95.3,66.7,231,130,
"O=C(Nc1cc(C(F)(F)F)cc(C(F)(F)F)c1)c1cc(Cl)ccc1O + CO[C@H]1C[C@@H]2CC[C@@H](C)[C@@](O)(O2)C(=O)C(=O)N2CCCC[C@H]2C(=O)O[C@H]([C@H](C)C[C@@H]2CC[C@@H](OCCO)[C@H](OC)C2)CC(=O)[C@H](C)/C=C(\C)[C@@H](O)[C@@H](OC)C(=O)[C@H](C)C[C@H](C)/C=C/C=C/C=C/1C [everolimus] (first compound 0.016 µM, partner dose 0.02 µM)",877,248,95.8,477,109,257,103,100,181,77.3,132,127,108,190,225,84.2,293,97.8,188
"N#CC[C@H](C1CCCC1)n1cc(-c2ncnc3[nH]ccc23)cn1 [ruxolitinib] + COc1cc([C@@H]2c3cc4c(cc3[C@@H](O[C@@H]3O[C@@H]5CO[C@@H](C)O[C@H]5[C@H](O)[C@H]3O)[C@H]3COC(=O)[C@H]23)OCO4)cc(OC)c1O [etoposide] (first compound 1 µM, partner dose 0.02 µM)",58.3,155,69,47.2,,55.5,79.8,198,110,102,86.4,61.5,86,105,44.5,106,154,33.5,64.7
"Cc1cn(-c2cc(NC(=O)c3ccc(C)c(Nc4nccc(-c5cccnc5)n4)c3)cc(C(F)(F)F)c2)cn1 [nilotinib] + O=C(O)[C@@H]1[O][Sb](=[O])([O][Sb]2(=[O])[O][C@H]([C@H](O)CO)[C@H](O)[C@H](C(=O)O)[O]2)[O][C@H]([C@H](O)CO)[C@@H]1O [stibogluconate] (first compound 0.2 µM, partner dose 2 µM)",245,43.9,75.5,62,72.7,28.4,87.5,264,79.5,85.2,56.5,51.7,48,86.7,88.2,119,82.8,52.6,39.5
"N#CC[C@H](C1CCCC1)n1cc(-c2ncnc3[nH]ccc23)cn1 [ruxolitinib] + O=C(O)C(=O)Nc1sc2c(c1C(=O)O)CCNC2 [TCS401] (first compound 1 µM, partner dose 1.66667 µM)",70.8,23.5,72.3,,31,367,225,143,112,,202,49.7,142,88.3,91.8,107,66.3,191,
"N#CC[C@H](C1CCCC1)n1cc(-c2ncnc3[nH]ccc23)cn1 [ruxolitinib] + O=c1cc(-c2cccc3c2Sc2ccccc2S3)oc(N2CCOCC2)c1 [KU55933] (first compound 1 µM, partner dose 1 µM)",78.2,24.6,101,,67.5,211,83.6,85.3,92.5,,85.8,458,93.6,112,43.9,104,52.1,200,
"O=c1[nH]nc(Sc2ncc([N+](=O)[O-])s2)n1-c1ccc2c(c1)OCCO2 + O=C1NC(=O)/C(=C/c2ccc(-c3ccc(F)cc3O)o2)S1 [AS252424] (first compound 0.2 µM, partner dose 1 µM)",72.9,28.1,50.5,,188,30.9,101,45.5,88.8,,87.7,35.6,38.4,148,92.5,138,79.7,135,
"O=c1[nH]nc(Sc2ncc([N+](=O)[O-])s2)n1-c1ccc2c(c1)OCCO2 + O=C(Nc1ccccc1)c1cc([N+](=O)[O-])ccc1Cl [GW9662] (first compound 0.2 µM, partner dose 2 µM)",77.6,21.9,42.7,,36.4,51.6,105,207,350,,122,197,116,136,72.8,268,67.3,79.4,
"O=c1[nH]nc(Sc2ncc([N+](=O)[O-])s2)n1-c1ccc2c(c1)OCCO2 + CCN(CC)CCCCNc1ncc2cc(-c3cc(OC)cc(OC)c3)c(NC(=O)NC(C)(C)C)nc2n1 [PD173074] (first compound 0.2 µM, partner dose 0.1 µM)",230,54.5,231,,43.8,110,105,53.2,100,,119,146,72.7,102,87,92.6,32.3,202,
"O=C(/C=C/c1cccnc1)NCCCCC1CCN(C(=O)c2ccccc2)CC1 + COc1ccc(COc2ccc(Cc3cnc(N)nc3N)cc2OC)cc1 [GW2580] (first compound 0.01 µM, partner dose 1 µM)",142,22.3,16.3,,32.5,3230,99.6,178,206,,226,273,282,3740,774,31.5,333,35.6,

# Rewritten bar-delimited: entries from further up
Compound | cleaved PARP positive nuclei fraction (501Mel) [%] | cleaved PARP positive nuclei fraction (A101D) [%] | cleaved PARP positive nuclei fraction (A2058) [%] | cleaved PARP positive nuclei fraction (A375) [%] | cleaved PARP positive nuclei fraction (C32) [%] | cleaved PARP positive nuclei fraction (CBRC008) [%] | cleaved PARP positive nuclei fraction (CBRC014) [%] | cleaved PARP positive nuclei fraction (CBRC016) [%] | cleaved PARP positive nuclei fraction (CBRC017) [%] | cleaved PARP positive nuclei fraction (CBRC034) [%] | cleaved PARP positive nuclei fraction (COLO792) [%] | cleaved PARP positive nuclei fraction (COLO800) [%] | cleaved PARP positive nuclei fraction (COLO829) [%] | cleaved PARP positive nuclei fraction (G361) [%] | cleaved PARP positive nuclei fraction (IPC-298) [%] | cleaved PARP positive nuclei fraction (IST-MEL1) [%] | cleaved PARP positive nuclei fraction (LB2518-MEL) [%] | cleaved PARP positive nuclei fraction (LOXIMVI) [%] | cleaved PARP positive nuclei fraction (MEL-HO) [%]
Cc1cn(-c2cc(NC(=O)c3ccc(C)c(Nc4nccc(-c5cccnc5)n4)c3)cc(C(F)(F)F)c2)cn1 [nilotinib] + CCCCCCCCCCCC1=C(O)C(=O)C=C(O)C1=O [Embelin] (first compound 0.2 µM, partner dose 1.2 µM) | 53.7 | 33.8 | 78.5 |  | 220 | 94.3 | 89.3 | 14 | 79.6 |  | 38.5 | 72.7 | 31.8 | 79.8 | 60.5 | 111 | 66.8 | 12.7 | 
O=C(Nc1cc(C(F)(F)F)cc(C(F)(F)F)c1)c1cc(Cl)ccc1O + CCN(CC)CCNC(=O)c1c(C)[nH]c(/C=C2\C(=O)Nc3ccc(F)cc32)c1C [sunitinib] (first compound 0.016 µM, partner dose 0.4 µM) | 130 | 175 | 136 | 110 | 80 | 75.2 | 96.4 | 307 | 110 | 56.8 | 114 | 199 | 75 | 116 | 43.4 | 30.4 | 158 | 134 | 56.1
